# Values of other authors, collected in patent US20240390318A1, “PHARMACEUTICAL COMPOSITION COMPRISING CDK INHIBITOR AND ID2 ACTIVATOR FOR PREVENTION OR TREATMENT OF BLADDER CANCER” (THE ASAN FOUNDATION, priority 2021, published 2024).
# For at least one compound, name, drawing or mass did not settle the structure.
# Tested on: non-muscle invasive urothelial carcinoma
# Settings: low dose FK506, activation of BMP pathway; cited from earlier work
smiles,measurement,value
C=CC[C@@H]1/C=C(\C)C[C@H](C)C[C@H](OC)[C@H]2O[C@@](O)(C(=O)C(=O)N3CCCC[C@H]3C(=O)O[C@H](/C(C)=C/[C@@H]3CC[C@@H](O)[C@H](OC)C3)[C@H](C)[C@@H](O)CC1=O)[C@H](C)C[C@@H]2OC [FK506],inhibition of progression of non-muscle invasive urothelial carcinoma,effective in inhibiting progression
